{"source": "PubChem BioAssay AID1259308 (NCATS, 2017)", "assay": "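Candidate targets for better recombinant protein yield in mammalian cells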 (primary screen)", "system": "human HEK293 embryonic kidney cells stably expressing firefly luciferase (HEK-CMV-Luc2-Hygro)", "knock-down reagent": "single siRNA against human genes, 0.8 pmol siRNA per well", "timing": "72 h", "detection": "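Luciferase light (ONE-Glo) measured on one replicate plate set and viability (CellTiter-Glo) on the other, scaled to a negative control siRNA, with robust z-scores and luciferase per cell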", "scale": "total luciferase, z-score and total luciferase, % of control: higher = more reporter protein produced", "hit rule": "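Active when the median/MAD z-score for overall luciferase is greater than 3; a gene was taken forward for validation with new siRNAs if at least two of its three siRNAs passed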", "meaning of the calls": "active = raised luciferase; inactive = no rise", "note": "Shown is a random part of about 59,000 reagents tested. Over the whole deposit, about 1,510 (2.6%) were called active. 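Calls use total luciferase alone and ignore viability, so some active siRNAs may act by altering cell number.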 Reagents against one gene are numbered here. Further read-outs or replicates are left out here."}
{"target gene": "PLK4 (polo like kinase 4)", "reagent": 1, "total luciferase, z-score": 0.708, "total luciferase, % of control": 96, "activity call": "inactive"}
{"target gene": "PLK4 (polo like kinase 4)", "reagent": 2, "total luciferase, z-score": -1.68, "total luciferase, % of control": 48.5, "activity call": "inactive"}
{"target gene": "PLK4 (polo like kinase 4)", "reagent": 3, "total luciferase, z-score": 4.55, "total luciferase, % of control": 172, "activity call": "active"}
{"target gene": "SP7 (Sp7 transcription factor)", "reagent": 1, "total luciferase, z-score": -0.47, "total luciferase, % of control": 72.5, "activity call": "inactive"}
{"target gene": "SP7 (Sp7 transcription factor)", "reagent": 2, "total luciferase, z-score": 1.22, "total luciferase, % of control": 106, "activity call": "inactive"}
{"target gene": "SP7 (Sp7 transcription factor)", "reagent": 3, "total luciferase, z-score": 0.534, "total luciferase, % of control": 92.5, "activity call": "inactive"}
{"target gene": "DGLUCY (D-glutamate cyclase)", "reagent": 1, "total luciferase, z-score": 0.449, "total luciferase, % of control": 90.8, "activity call": "inactive"}
{"target gene": "DGLUCY (D-glutamate cyclase)", "reagent": 2, "total luciferase, z-score": -0.0481, "total luciferase, % of control": 80.9, "activity call": "inactive"}
{"target gene": "DGLUCY (D-glutamate cyclase)", "reagent": 3, "total luciferase, z-score": -1.07, "total luciferase, % of control": 60.5, "activity call": "inactive"}
{"target gene": "TMEM121B (transmembrane protein 121B)", "reagent": 1, "total luciferase, z-score": -0.0461, "total luciferase, % of control": 81, "activity call": "inactive"}
{"target gene": "TMEM121B (transmembrane protein 121B)", "reagent": 2, "total luciferase, z-score": -3.02, "total luciferase, % of control": 21.9, "activity call": "inactive"}
{"target gene": "TMEM121B (transmembrane protein 121B)", "reagent": 3, "total luciferase, z-score": -2.97, "total luciferase, % of control": 22.9, "activity call": "inactive"}
{"target gene": "HAUS7 (HAUS augmin like complex subunit 7)", "reagent": 1, "total luciferase, z-score": -0.145, "total luciferase, % of control": 79, "activity call": "inactive"}
{"target gene": "HAUS7 (HAUS augmin like complex subunit 7)", "reagent": 2, "total luciferase, z-score": 2.94, "total luciferase, % of control": 140, "activity call": "inactive"}
{"target gene": "HAUS7 (HAUS augmin like complex subunit 7)", "reagent": 3, "total luciferase, z-score": -1.04, "total luciferase, % of control": 61.1, "activity call": "inactive"}
{"target gene": "PIM2 (Pim-2 proto-oncogene, serine/threonine kinase)", "reagent": 1, "total luciferase, z-score": 4.66, "total luciferase, % of control": 174, "activity call": "active"}
{"target gene": "PIM2 (Pim-2 proto-oncogene, serine/threonine kinase)", "reagent": 2, "total luciferase, z-score": -0.837, "total luciferase, % of control": 65.2, "activity call": "inactive"}
{"target gene": "PIM2 (Pim-2 proto-oncogene, serine/threonine kinase)", "reagent": 3, "total luciferase, z-score": -0.106, "total luciferase, % of control": 79.8, "activity call": "inactive"}
{"target gene": "CDCP2 (CUB domain containing protein 2)", "reagent": 1, "total luciferase, z-score": -1.07, "total luciferase, % of control": 60.6, "activity call": "inactive"}
{"target gene": "CDCP2 (CUB domain containing protein 2)", "reagent": 2, "total luciferase, z-score": -2.64, "total luciferase, % of control": 29.5, "activity call": "inactive"}
{"target gene": "CDCP2 (CUB domain containing protein 2)", "reagent": 3, "total luciferase, z-score": 0.0976, "total luciferase, % of control": 83.8, "activity call": "inactive"}
{"target gene": "FBL (fibrillarin rRNA 2'-O-methyltransferase)", "reagent": 1, "total luciferase, z-score": 1.4, "total luciferase, % of control": 110, "activity call": "inactive"}
{"target gene": "FBL (fibrillarin rRNA 2'-O-methyltransferase)", "reagent": 2, "total luciferase, z-score": -1.44, "total luciferase, % of control": 53.2, "activity call": "inactive"}
{"target gene": "FBL (fibrillarin rRNA 2'-O-methyltransferase)", "reagent": 3, "total luciferase, z-score": -0.867, "total luciferase, % of control": 64.6, "activity call": "inactive"}
{"target gene": "CMPK1 (cytidine/uridine monophosphate kinase 1)", "reagent": 1, "total luciferase, z-score": 0.37, "total luciferase, % of control": 89.2, "activity call": "inactive"}
{"target gene": "CMPK1 (cytidine/uridine monophosphate kinase 1)", "reagent": 2, "total luciferase, z-score": 1.2, "total luciferase, % of control": 106, "activity call": "inactive"}
{"target gene": "CMPK1 (cytidine/uridine monophosphate kinase 1)", "reagent": 3, "total luciferase, z-score": -0.958, "total luciferase, % of control": 62.8, "activity call": "inactive"}
{"target gene": "LCP2 (lymphocyte cytosolic protein 2)", "reagent": 1, "total luciferase, z-score": -0.154, "total luciferase, % of control": 78.8, "activity call": "inactive"}
{"target gene": "LCP2 (lymphocyte cytosolic protein 2)", "reagent": 2, "total luciferase, z-score": 0.477, "total luciferase, % of control": 91.4, "activity call": "inactive"}
{"target gene": "LCP2 (lymphocyte cytosolic protein 2)", "reagent": 3, "total luciferase, z-score": 0.383, "total luciferase, % of control": 89.5, "activity call": "inactive"}
{"target gene": "DNASE2B (deoxyribonuclease 2 beta)", "reagent": 1, "total luciferase, z-score": 0.881, "total luciferase, % of control": 99.4, "activity call": "inactive"}
{"target gene": "DNASE2B (deoxyribonuclease 2 beta)", "reagent": 2, "total luciferase, z-score": 0.215, "total luciferase, % of control": 86.2, "activity call": "inactive"}
{"target gene": "DNASE2B (deoxyribonuclease 2 beta)", "reagent": 3, "total luciferase, z-score": -0.307, "total luciferase, % of control": 75.8, "activity call": "inactive"}

Part of the list above, reformatted:
target gene,reagent,"total luciferase, z-score","total luciferase, % of control",activity call
LCP2 (lymphocyte cytosolic protein 2),2,0.477,91.4,inactive
LCP2 (lymphocyte cytosolic protein 2),3,0.383,89.5,inactive
DNASE2B (deoxyribonuclease 2 beta),1,0.881,99.4,inactive
DNASE2B (deoxyribonuclease 2 beta),2,0.215,86.2,inactive
DNASE2B (deoxyribonuclease 2 beta),3,-0.307,75.8,inactive
